Source: the supplement of paper PMC10849652
The other results are listed elsewhere or left out.

By UniProt entry, the sequences of proteins in these tests, tags left out. Where a name states a change or a piece, a line headed by the entry shows the natural chain unless it says otherwise.
UniProt Q9Y2J2, whole entry, looked up: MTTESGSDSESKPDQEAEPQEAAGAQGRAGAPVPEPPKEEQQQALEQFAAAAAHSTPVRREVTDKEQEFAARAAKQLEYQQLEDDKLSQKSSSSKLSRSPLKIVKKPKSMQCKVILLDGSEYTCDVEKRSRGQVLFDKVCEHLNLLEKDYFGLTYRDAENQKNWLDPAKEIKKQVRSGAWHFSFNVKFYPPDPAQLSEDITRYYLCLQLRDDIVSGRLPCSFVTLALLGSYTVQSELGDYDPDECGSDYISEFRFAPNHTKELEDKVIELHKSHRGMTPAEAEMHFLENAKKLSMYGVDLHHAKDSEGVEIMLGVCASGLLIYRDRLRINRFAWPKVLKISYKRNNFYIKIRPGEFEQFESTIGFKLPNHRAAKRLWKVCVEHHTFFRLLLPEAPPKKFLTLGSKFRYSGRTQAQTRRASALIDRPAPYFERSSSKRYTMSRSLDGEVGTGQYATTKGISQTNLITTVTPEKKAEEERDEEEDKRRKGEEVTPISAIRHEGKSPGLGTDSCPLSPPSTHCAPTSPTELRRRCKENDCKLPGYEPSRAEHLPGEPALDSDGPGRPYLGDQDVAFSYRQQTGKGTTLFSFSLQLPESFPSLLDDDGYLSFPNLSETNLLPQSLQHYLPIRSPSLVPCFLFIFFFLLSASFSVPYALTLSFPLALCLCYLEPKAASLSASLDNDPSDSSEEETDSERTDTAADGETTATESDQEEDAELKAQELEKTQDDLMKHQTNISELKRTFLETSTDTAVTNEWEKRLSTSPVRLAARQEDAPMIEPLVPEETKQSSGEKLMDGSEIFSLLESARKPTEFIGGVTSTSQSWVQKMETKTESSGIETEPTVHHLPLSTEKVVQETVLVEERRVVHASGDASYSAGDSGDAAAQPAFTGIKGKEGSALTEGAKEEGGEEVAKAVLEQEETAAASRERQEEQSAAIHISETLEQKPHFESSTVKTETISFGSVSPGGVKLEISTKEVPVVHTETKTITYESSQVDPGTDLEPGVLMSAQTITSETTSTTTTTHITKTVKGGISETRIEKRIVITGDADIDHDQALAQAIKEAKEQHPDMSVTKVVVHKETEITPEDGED
UniProt Q13158: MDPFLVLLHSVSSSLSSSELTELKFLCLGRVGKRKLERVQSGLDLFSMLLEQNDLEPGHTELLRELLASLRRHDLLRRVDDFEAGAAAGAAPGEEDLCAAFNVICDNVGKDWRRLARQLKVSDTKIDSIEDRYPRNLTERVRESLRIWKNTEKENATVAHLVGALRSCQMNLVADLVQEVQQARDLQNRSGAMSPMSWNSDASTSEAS
UniProt P84090, whole entry, looked up: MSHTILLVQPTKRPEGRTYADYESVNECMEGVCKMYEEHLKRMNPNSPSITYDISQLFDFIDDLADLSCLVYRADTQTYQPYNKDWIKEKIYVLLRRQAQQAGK
UniProt Q96E09: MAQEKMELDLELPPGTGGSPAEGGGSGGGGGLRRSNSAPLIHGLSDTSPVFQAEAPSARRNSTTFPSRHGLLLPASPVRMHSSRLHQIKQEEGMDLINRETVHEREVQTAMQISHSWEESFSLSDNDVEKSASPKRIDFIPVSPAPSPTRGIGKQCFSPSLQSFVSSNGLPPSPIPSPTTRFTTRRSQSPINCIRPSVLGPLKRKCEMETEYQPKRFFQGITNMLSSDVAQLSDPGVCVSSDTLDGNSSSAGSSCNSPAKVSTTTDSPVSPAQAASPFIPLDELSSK
UniProt Q8TAG9: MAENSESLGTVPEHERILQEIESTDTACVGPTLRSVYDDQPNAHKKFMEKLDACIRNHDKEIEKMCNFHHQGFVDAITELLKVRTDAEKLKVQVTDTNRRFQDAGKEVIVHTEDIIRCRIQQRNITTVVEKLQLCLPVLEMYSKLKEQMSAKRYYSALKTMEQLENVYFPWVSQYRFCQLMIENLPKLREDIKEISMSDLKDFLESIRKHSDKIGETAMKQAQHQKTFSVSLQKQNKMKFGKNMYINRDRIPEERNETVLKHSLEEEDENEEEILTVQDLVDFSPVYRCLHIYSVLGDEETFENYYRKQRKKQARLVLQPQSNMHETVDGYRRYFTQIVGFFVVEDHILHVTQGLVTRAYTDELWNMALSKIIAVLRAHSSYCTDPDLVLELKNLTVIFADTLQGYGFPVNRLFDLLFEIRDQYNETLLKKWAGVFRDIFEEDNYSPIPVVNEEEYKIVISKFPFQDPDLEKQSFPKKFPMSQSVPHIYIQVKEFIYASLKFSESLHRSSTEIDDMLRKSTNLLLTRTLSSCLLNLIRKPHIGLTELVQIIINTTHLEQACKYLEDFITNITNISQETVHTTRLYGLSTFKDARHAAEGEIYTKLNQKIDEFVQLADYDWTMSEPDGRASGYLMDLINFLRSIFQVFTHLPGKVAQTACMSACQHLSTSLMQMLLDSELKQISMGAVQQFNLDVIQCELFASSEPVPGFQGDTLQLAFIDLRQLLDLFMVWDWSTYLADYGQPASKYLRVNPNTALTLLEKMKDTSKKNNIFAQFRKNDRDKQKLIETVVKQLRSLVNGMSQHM
UniProt Q5W0V3: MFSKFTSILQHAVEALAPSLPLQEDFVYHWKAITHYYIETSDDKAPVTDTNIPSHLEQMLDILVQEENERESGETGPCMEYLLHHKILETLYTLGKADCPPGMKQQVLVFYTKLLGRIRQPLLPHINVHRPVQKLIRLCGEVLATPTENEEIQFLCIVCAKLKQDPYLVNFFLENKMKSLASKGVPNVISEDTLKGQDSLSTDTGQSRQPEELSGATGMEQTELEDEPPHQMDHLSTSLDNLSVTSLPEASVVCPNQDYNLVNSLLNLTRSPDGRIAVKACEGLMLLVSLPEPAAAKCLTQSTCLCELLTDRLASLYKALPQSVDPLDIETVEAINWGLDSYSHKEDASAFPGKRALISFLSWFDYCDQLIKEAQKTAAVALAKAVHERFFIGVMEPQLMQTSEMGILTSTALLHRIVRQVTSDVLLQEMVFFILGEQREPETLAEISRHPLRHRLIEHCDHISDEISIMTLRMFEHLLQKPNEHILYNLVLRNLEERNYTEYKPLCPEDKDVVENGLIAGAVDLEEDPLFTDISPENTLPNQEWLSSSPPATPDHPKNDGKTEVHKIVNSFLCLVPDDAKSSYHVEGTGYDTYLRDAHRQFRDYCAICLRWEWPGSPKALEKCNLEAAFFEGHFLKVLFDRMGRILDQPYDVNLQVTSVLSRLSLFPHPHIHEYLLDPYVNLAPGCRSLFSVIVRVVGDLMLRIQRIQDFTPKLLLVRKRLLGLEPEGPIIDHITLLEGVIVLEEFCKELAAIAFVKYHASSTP
UniProt P12259: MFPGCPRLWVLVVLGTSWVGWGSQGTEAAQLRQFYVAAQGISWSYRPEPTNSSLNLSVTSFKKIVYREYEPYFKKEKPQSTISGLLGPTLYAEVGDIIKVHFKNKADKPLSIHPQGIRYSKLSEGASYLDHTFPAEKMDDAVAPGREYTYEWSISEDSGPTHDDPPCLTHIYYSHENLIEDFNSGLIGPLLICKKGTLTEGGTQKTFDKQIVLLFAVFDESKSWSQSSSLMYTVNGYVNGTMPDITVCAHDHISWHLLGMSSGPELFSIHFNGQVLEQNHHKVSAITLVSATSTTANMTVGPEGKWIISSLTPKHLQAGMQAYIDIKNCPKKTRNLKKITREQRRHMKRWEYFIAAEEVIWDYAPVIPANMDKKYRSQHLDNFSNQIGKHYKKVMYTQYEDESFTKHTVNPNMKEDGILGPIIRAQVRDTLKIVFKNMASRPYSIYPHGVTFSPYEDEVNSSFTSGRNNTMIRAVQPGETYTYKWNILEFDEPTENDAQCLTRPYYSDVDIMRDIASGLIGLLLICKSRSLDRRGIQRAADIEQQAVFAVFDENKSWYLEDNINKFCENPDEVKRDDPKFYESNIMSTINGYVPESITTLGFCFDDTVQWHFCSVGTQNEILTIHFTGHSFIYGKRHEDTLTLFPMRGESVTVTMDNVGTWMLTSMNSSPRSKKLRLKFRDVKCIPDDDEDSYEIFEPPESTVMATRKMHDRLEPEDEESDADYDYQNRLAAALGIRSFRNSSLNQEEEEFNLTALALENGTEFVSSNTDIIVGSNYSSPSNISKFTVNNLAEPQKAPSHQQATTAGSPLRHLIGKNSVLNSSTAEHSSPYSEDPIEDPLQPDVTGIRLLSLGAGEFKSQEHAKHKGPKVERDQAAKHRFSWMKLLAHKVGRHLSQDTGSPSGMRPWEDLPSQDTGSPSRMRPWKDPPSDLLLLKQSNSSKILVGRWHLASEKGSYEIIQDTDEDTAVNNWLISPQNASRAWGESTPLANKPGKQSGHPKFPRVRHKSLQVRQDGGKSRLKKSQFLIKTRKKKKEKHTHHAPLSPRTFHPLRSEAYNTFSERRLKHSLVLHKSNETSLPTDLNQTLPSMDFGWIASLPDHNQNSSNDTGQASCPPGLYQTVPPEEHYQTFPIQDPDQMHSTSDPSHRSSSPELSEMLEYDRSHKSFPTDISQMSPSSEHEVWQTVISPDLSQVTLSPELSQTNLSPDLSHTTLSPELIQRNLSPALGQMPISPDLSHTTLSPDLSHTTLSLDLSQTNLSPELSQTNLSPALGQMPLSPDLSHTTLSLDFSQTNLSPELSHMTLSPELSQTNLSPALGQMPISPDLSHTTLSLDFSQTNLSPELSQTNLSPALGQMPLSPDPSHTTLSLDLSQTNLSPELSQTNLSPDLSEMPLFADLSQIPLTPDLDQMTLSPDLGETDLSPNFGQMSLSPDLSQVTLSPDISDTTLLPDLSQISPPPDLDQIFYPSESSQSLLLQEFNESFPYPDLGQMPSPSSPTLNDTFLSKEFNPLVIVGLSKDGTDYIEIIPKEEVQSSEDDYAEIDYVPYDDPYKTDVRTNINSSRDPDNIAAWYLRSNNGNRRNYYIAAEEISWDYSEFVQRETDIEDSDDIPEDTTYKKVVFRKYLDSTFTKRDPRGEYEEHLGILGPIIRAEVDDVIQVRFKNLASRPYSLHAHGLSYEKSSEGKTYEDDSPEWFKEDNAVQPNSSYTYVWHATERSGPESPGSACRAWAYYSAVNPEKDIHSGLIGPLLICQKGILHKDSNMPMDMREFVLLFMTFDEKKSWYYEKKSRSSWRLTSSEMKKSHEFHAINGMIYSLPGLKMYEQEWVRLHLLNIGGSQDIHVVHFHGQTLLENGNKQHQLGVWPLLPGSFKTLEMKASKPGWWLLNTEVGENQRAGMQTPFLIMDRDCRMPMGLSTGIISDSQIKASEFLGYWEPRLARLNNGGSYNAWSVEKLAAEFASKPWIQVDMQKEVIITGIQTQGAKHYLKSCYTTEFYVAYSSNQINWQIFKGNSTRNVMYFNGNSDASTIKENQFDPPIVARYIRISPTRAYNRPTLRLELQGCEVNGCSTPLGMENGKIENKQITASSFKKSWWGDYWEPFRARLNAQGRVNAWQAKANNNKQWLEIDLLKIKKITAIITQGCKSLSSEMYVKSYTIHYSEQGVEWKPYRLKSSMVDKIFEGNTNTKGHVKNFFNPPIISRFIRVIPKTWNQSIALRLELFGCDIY
UniProt O00471: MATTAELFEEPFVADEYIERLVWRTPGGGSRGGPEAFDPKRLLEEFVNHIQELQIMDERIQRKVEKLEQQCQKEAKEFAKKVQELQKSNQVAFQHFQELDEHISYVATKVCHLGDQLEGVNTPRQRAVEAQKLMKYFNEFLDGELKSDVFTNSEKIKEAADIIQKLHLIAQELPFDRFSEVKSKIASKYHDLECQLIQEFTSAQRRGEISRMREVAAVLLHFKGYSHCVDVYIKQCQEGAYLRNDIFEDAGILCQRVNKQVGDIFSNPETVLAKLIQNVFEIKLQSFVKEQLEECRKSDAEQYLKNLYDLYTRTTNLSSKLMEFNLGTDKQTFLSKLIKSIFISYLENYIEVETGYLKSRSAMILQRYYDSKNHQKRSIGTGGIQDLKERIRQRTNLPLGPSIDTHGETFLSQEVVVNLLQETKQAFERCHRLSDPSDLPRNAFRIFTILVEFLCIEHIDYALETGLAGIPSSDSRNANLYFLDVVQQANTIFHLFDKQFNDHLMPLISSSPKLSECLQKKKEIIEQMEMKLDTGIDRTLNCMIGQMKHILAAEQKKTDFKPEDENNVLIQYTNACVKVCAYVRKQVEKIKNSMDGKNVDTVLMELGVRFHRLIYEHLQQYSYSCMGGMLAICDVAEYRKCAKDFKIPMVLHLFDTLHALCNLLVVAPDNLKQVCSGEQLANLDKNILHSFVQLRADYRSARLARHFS
UniProt O94905: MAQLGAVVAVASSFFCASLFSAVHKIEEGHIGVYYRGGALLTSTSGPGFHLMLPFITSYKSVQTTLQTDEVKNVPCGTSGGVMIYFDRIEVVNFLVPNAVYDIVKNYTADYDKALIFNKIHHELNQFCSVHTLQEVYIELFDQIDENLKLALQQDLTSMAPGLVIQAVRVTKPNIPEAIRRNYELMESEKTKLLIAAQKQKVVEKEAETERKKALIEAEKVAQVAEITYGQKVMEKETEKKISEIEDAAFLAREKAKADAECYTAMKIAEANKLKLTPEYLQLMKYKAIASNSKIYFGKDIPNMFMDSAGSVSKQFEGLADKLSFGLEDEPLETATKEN

Tests used:
Test in all cases: log2 fold change, soluble protein after heating vs DMSO (PISA); higher = thermal stabilisation; K562 cells, 10 uM, 30 min; active = over 0.2 and 3.5 SD of the protein, either way, in both replicates (recomputed)
[1] = compound: CC[C@@H]1C(=O)N(C)c2cnc(Nc3ccc(C(=O)NC4CCN(C)CC4)cc3OC)nc2N1C1CCCC1
Outline: (§1)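 Values are thermal stability changes relative to control samples and are taken from duplicates. They are stated as log2 fold changes. Before quantification by TMTpro 16plex LC-MS/MS with equalised channel sums, K562 cells at 2×10^6 cells/mL were treated with 10 μM compound for 30 min, heated in aliquots for 3 min across 48°C-58°C, pooled, extracted in PBS with 0.5% NP-40 at 4°C, and centrifuged at 21,000xg for 90 min to give the soluble supernatant.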

volasertib = compound: CC[C@@H]1C(=O)N(C)c2cnc(Nc3ccc(C(=O)N[C@H]4CC[C@H](N5CCN(CC6CC6)CC5)CC4)cc3OC)nc2N1C(C)C [volasertib]
Outline: as §1

[2] = compound: CC[C@H](C)N1C=C(C2=C(C=C(C=C21)C3=CN=C(C=C3)N4CCNCC4)C(=O)NCC5=C(C=C(NC5=O)C)C)C
Outline: as §1

epoxomicin = compound: CC[C@H](C)[C@@H](C(=O)N[C@@H]([C@@H](C)O)C(=O)N[C@@H](CC(C)C)C(=O)[C@]1(CO1)C)NC(=O)[C@H]([C@@H](C)CC)N(C)C(=O)C [epoxomicin]
Outline: as §1

[3] = compound: CCn1c(C(=O)N(C2CC2)C2CC2)cc2c3c(ncn3C)c(Nc3cc(C)n(C)n3)nc21
Outline: as §1

[4] = compound: CCn1cc(-c2ccnc3[nH]c(-c4cccc(CN(C)C)c4)cc23)c(-c2ccc(NC(=O)N(C)C)cc2)n1
Outline: as §1

[5] = compound: CN(C)CC(=O)Nc1ccc2[nH]c(=O)c3ccccc3c2c1
Outline: as §1

rosiglitazone = compound: CN(CCOC1=CC=C(C=C1)C[C@H]2C(=O)NC(=O)S2)C3=CC=CC=N3 (racemic) [rosiglitazone]
Outline: as §1

[6] = compound: CN1C2=C(C3=C1C(=O)N(N=C3)CC4=CC(=CC=C4)N)SC(=C2)S(=O)C
Outline: as §1

[7] = compound: CN1CCC(CNc2ccc3ncc(-c4cccc(OC(F)(F)F)c4)n3n2)CC1
Outline: as §1

saracatinib = compound: CN1CCN(CCOc2cc(OC3CCOCC3)c3c(Nc4c(Cl)ccc5c4OCO5)ncnc3c2)CC1 [saracatinib]
Outline: as §1

sotrastaurin = compound: CN1CCN(c2nc(C3=C(c4c[nH]c5ccccc45)C(=O)NC3=O)c3ccccc3n2)CC1 [sotrastaurin]
Outline: as §1

alvocidib = compound: CN1CC[C@H](c2c(O)cc(O)c3c(=O)cc(-c4ccccc4Cl)oc23)[C@H](O)C1 [alvocidib]
Outline: as §1

Tubastatin A = compound: CN1CCc2c(c3ccccc3n2Cc2ccc(C(=O)NO)cc2)C1 [Tubastatin A]
Outline: as §1

[8] = compound: CNC(=O)C1=CC=CC=C1NC2=NC(=NC=C2Cl)NC3=C(C=C(C=C3)N4CCOCC4)OC
Outline: as §1

defactinib = compound: CNC(=O)c1ccc(Nc2ncc(C(F)(F)F)c(NCc3nccnc3N(C)S(C)(=O)=O)n2)cc1 [defactinib]
Outline: as §1

rucaparib = compound: CNCc1ccc(-c2[nH]c3cc(F)cc4c3c2CCNC4=O)cc1 [rucaparib]
Outline: as §1

[9] = compound: CNc1nc(-c2ccc3c(N)n[nH]c3c2)cc(N2C[C@@H](C(=O)NC3CCCCC3)CC[C@H]2C)n1
Outline: as §1

encorafenib = compound: COC(=O)N[C@@H](C)CNc1nccc(-c2cn(C(C)C)nc2-c2cc(Cl)cc(NS(C)(=O)=O)c2F)n1 [encorafenib]
Outline: as §1

[10] = compound: COC(=O)[C@H](CCSC)NC(=O)C1=C(C=C(C=C1)NC[C@H](CS)N)C2=CC=CC=C2
Outline: as §1

Target	log2 fold change [1]	log2 fold change (volasertib)	log2 fold change [2]	log2 fold change (epoxomicin)	log2 fold change [3]	log2 fold change [4]	log2 fold change [5]	log2 fold change (rosiglitazone)	log2 fold change [6]	log2 fold change [7]	log2 fold change (saracatinib)	log2 fold change (sotrastaurin)	log2 fold change (alvocidib)	log2 fold change (Tubastatin A)	log2 fold change [8]	log2 fold change (defactinib)	log2 fold change (rucaparib)	log2 fold change [9]	log2 fold change (encorafenib)	log2 fold change [10]
EPB41L3 (UniProt Q9Y2J2)	inactive: 0.034	inactive: -0.039	inactive: 0.031	inactive: 0.02	inactive: 0.029	inactive: -0.045	inactive: -0.043	inactive: 0.001	inactive: -0.088	inactive: -0.086	inactive: -0.038	inactive: -0.012	inactive: -0.001	inactive: 0.003	inactive: 0.004	inactive: -0.033	inactive: -0.001	inactive: 0.027	inactive: -0.027	inactive: 0
FADD (UniProt Q13158)	inactive: 0.127	inactive: -0.138	inactive: -0.003	inactive: -0.048	inactive: -0.027		inactive: -0.048	inactive: 0.026	inactive: -0.015		inactive: 0.089	inactive: -0.13	inactive: -0.107	inactive: -0.098	inactive: -0.071	inactive: -0.072	inactive: 0.272	inactive: -0.011	inactive: 0.155	inactive: 0.011
ERH (UniProt P84090)	inactive: 0.053	inactive: 0.11	inactive: 0.033	inactive: 0.183	inactive: 0.037	inactive: 0.048	inactive: -0.019	inactive: -0.019	inactive: -0.012	inactive: 0.087	inactive: -0.016		inactive: -0.144	inactive: 0.042	inactive: -0.088	inactive: -0.072	inactive: 0.06	inactive: -0.001	inactive: -0.063	inactive: -0.004
FAM122A (UniProt Q96E09)	inactive: -0.042	inactive: -0.054	inactive: 0.006	inactive: -0.141		active: -0.426	inactive: -0.043		inactive: -0.081	active: -0.699	inactive: -0.005	inactive: -0.027		inactive: 0.096	inactive: -0.09	inactive: -0.018	inactive: 0.015	inactive: 0.017	inactive: -0.016	inactive: 0.056
EXOC6 (UniProt Q8TAG9)	inactive: -0.224	active: -0.443	inactive: 0.102	inactive: -0.06		inactive: 0.014	inactive: 0.033		inactive: 0.06	inactive: -0.23	inactive: -0.02	inactive: -0.153		inactive: 0.042	inactive: 0.075	inactive: -0.061	inactive: 0.025	inactive: -0.015	inactive: 0.013	inactive: 0.009
FADS3 (UniProt Q9Y5Q0)	inactive: -0.02	inactive: 0.095	inactive: 0.013	inactive: -0.016		inactive: -0.116	inactive: -0.05		inactive: -0.13	inactive: -0.231	inactive: 0.035	inactive: 0.037		inactive: -0.061	inactive: 0.026	inactive: 0.048	inactive: 0.024	inactive: -0.079	inactive: 0.02	inactive: 0.026
FAM160B1 (UniProt Q5W0V3)	inactive: -0.007	inactive: -0.043	inactive: 0.07	inactive: 0		inactive: -0.057	inactive: -0.052		inactive: -0.056	inactive: -0.254	inactive: -0.003	inactive: -0.071		inactive: 0	inactive: -0.011	inactive: -0.01	inactive: -0.036	inactive: -0.007	inactive: -0.015	inactive: 0.072
EPHX2 (UniProt P34913)	inactive: 0.098	inactive: 0.117	inactive: -0.019	inactive: -0.012		inactive: -0.032	inactive: -0.015		inactive: 0.066	inactive: 0.091	inactive: -0.009	inactive: 0.172		inactive: 0.003	inactive: -0.022	inactive: -0.002	inactive: 0.002	inactive: 0.216	inactive: 0.003	inactive: -0.011
F5 (UniProt P12259)	inactive: -0.06	inactive: 0.105	inactive: -0.018	inactive: -0.125		inactive: -0.048	inactive: -0.09		inactive: 0.141	inactive: -0.009	inactive: -0.003	inactive: 0.139		inactive: -0.076	inactive: 0.133	inactive: 0.081	inactive: -0.079	inactive: -0.068	inactive: 0.037	inactive: 0.039
EXOC5 (UniProt O00471)	inactive: -0.236	active: -0.596	inactive: 0.093	inactive: 0.041		inactive: 0.022	inactive: 0.066		inactive: 0.054	inactive: -0.215	inactive: -0.043	inactive: -0.209		inactive: 0.015	inactive: 0.042	inactive: -0.064	inactive: 0.091	inactive: -0.06	inactive: 0.083	inactive: -0.071
EXOC4 (UniProt Q96A65)	inactive: -0.145	active: -0.606	inactive: 0.095	inactive: 0.005		inactive: 0.021	inactive: 0.061		inactive: 0.103	inactive: -0.243	inactive: -0.013	inactive: -0.224		inactive: 0.058	inactive: -0.04	inactive: -0.049	inactive: 0.183	inactive: 0.015	inactive: 0.14	inactive: 0.01
EXOC7 (UniProt Q9UPT5)	inactive: -0.156	active: -0.619	inactive: 0.09	inactive: 0.048		inactive: 0.015	inactive: 0.006		inactive: 0.033	active: -0.317	inactive: 0.024	inactive: -0.218		inactive: 0.029	inactive: -0.04	inactive: -0.06	inactive: -0.01	inactive: -0.077	inactive: 0.006	inactive: -0.047
ERLIN1 (UniProt O75477)	inactive: -0.01	inactive: -0.025	inactive: 0.07	inactive: 0.018		inactive: 0.057	inactive: 0.003		inactive: 0.095	inactive: 0.116	inactive: 0	inactive: -0.072		inactive: 0.029	inactive: -0.06	inactive: 0.028	inactive: 0.072	inactive: -0.004	inactive: 0.105	inactive: -0.024
ERLIN2 (UniProt O94905)	inactive: 0.06	inactive: -0.057	inactive: 0.054	inactive: -0.034		inactive: 0.01	inactive: -0.051		inactive: 0.096	inactive: 0.008	inactive: -0.044	inactive: -0.097		inactive: 0	inactive: -0.137	inactive: 0.026	inactive: 0.033	inactive: -0.005	inactive: 0.092	inactive: 0.004
FAM177A1 isoform 2 (UniProt Q8N128)	inactive: -0.039	inactive: -0.108	inactive: 0.006	inactive: 0.045		inactive: 0.045	inactive: -0.012		inactive: -0.023	active: -0.259	inactive: 0.092	inactive: -0.021		inactive: 0.045	inactive: -0.094	inactive: -0.054	inactive: 0.001	inactive: -0.042	inactive: -0.029	inactive: -0.065
ERG28 (UniProt Q9UKR5)	inactive: 0.176	inactive: -0.09	inactive: -0.064	inactive: 0.092	inactive: 0.021		inactive: 0	inactive: 0.107				inactive: 0.061	inactive: 0.044	inactive: 0.025	inactive: 0.036	inactive: -0.014	inactive: -0.138		inactive: 0.06	inactive: -0.096
FAHD2B (UniProt Q6P2I3)	inactive: 0.097	inactive: -0.142	inactive: -0.032	inactive: 0.04	inactive: -0.101			inactive: 0.032	inactive: -0.056		inactive: 0.177		inactive: 0.01		inactive: -0.108		inactive: -0.076	inactive: 0.013	inactive: -0.071	
ETNK1 (UniProt Q9HBU6)	inactive: 0.021	inactive: -0.24	inactive: 0.021	inactive: 0.157		inactive: 0.059	inactive: 0.121		inactive: -0.14	inactive: 0.041	inactive: -0.037	inactive: -0.045		inactive: 0.092	inactive: 0.053	inactive: -0.001	active: 0.295	inactive: -0.039	inactive: -0.007	inactive: -0.027
FAM114A2 (UniProt Q9NRY5)	inactive: -0.094	inactive: -0.136	inactive: 0.046	inactive: 0.052		inactive: -0.059	inactive: 0.02		inactive: -0.013	active: -0.29	inactive: 0.005	inactive: -0.048		inactive: -0.019	inactive: -0.001	inactive: -0.04	inactive: -0.022	inactive: -0.054	inactive: 0.008	inactive: 0.025
